Measurements taken from PubChem BioAssay AID504444 (National Center for Advancing Translational Sciences (NCATS), 2011).
The campaign covered roughly 360,000 compounds. About 7,500 (2.1%) were called active. Inconclusive means that the source gave no clear call. Such entries were picked first, then a sample of the others. Calls follow the shape of the dose curve; as a rule, active = well fitted inhibition curve with a large enough effect; inconclusive = small, poorly fitted or top-dose-only effect, or effect the other way; inactive = flat fitted curve, though single readings scatter. Potencies beside an inconclusive call are fits to weak or partial responses and may not hold up.
Potency is read from the fitted curve at half-maximal effect.

Assay: Nrf2 qHTS screen for inhibitors; also: nearly all actives have a fitted effect of over 60% in size
Conditions: A549 ARE-Fluc reporter, luciferase luminescence, 18-24 h; series mostly up to 46 µM
How it was run: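 Nrf2 function is reported as luminescence of an ARE-controlled luciferase in A549 cells. Compounds were tested at several concentrations, and a CellTiter-Fluor read on the same wells flagged cytotoxicity.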
With `CC(C)c1ccc(S(=O)(=O)c2n[nH]n3c2nc(=O)c2ccccc23)cc1` the Potency was “inactive”. With `COc1cc2[nH]c(C(=O)N3CCC(Cc4ccccc4)CC3)cc2c(OC)c1OC` the Potency was inconclusive: 29.1 µM [falling, single point]. In the case of `CC(C)C(=O)NC(c1cccc([N+](=O)[O-])c1)c1ccc2cccnc2c1O` (stereo not drawn), the Potency is reported as inconclusive: 20.6 µM [falling, single point]. In the case of `COc1ccc(N=c2cc(-c3ccc(OC)cc3)oc3ccccc23)cc1`, the Potency is reported as active: 16.4 µM. For `CCCCN(C)C(=O)c1ccc2c(c1)N(Cc1ccc(F)cc1)C(=O)c1ccccc1S2(=O)=O`, the Potency was active: 16.4 µM. In the case of `O=C(c1ccc(-c2ccccc2)c(F)c1)C1CCCN(C(=O)c2cncs2)C1` (stereo not drawn), the Potency is reported as inconclusive: 29.1 µM [falling, single point]. With `CCOC(=O)c1c(-c2ccc(OC)cc2)csc1NC(=O)COc1ccc2c(C)cc(=O)oc2c1` the Potency was “inactive”. For `O=C(NC1CCCCC1)c1cc(-c2ccc(F)cc2)on1`, the Potency was inconclusive: 6.51 µM [activator, single point]. In the case of `Cc1cc(C(=O)N(C)C)sc1-c1ccccc1`, the Potency is reported as inconclusive: 3.66 µM [activator, single point]. For `CCc1ccc(C(=O)Nc2ccc(C)c(NS(C)(=O)=O)c2)cc1`, the Potency was inconclusive: 29.1 µM [falling, single point]. For `COc1ccccc1-c1ccc(SCc2ccccc2)nn1`, the Potency was inconclusive: 16.4 µM [activator, partial curve, poor fit]. For `CCn1c2ccccc2c2cc(NC(=O)CSc3nnc(C4CC4)n3Cc3ccco3)ccc21`, the Potency was active: 18.4 µM. For `N/C(=N\OC(=O)c1ccc(Cl)cc1)c1ccccn1`, the Potency was inconclusive: 2.59 µM [activator, partial curve, poor fit]. For `CCN(Cc1cc(OC)c(OC)c(OC)c1)C(=S)Nc1cccc(SC)c1`, the Potency was inconclusive: 16.4 µM [falling, single point]. In the case of `CN(C)c1nc(-c2cccnc2)nc(-c2ccc(Cl)cc2)c1C#N`, the Potency is reported as inconclusive: 1.84 µM [falling, full curve, poor fit]. With `Cc1ccc(-n2c(=O)c3oc4ccccc4c3n(CC(=O)Nc3ccc(F)c(Cl)c3)c2=O)cc1C` the Potency was inconclusive: 8.2 µM [activator, partial curve]. For `Cc1ccc(S(=O)(=O)N2CCCOC2CNC(=O)C(=O)NCCc2c[nH]c3ccccc23)cc1` (stereo not drawn), the Potency was inconclusive: 23.1 µM [falling, single point]. In the case of `Cc1cccc(N2CCN(C(=O)Cn3cnc4c3c(=O)n(C)c(=O)n4C)CC2)c1C`, the Potency is reported as “inactive”. In the case of `O=C(NNC(=O)c1ccccn1)c1ccc(OC(F)F)cc1`, the Potency is reported as inconclusive: 20.6 µM [falling, single point]. For `O=C1OCCC/C1=C\c1ccc2c(c1)OCO2`, the Potency was inconclusive: 29.1 µM [activator, single point]. With `Cc1csc(N/N=C\c2cccnc2)n1` the Potency was inconclusive: 23.1 µM [activator, single point]. For `CCCCNc1c2c3c(cccc3n(C)c1=O)C(=O)c1ccccc1-2`, the Potency was inconclusive: 29.1 µM [falling, single point]. For `NC(=O)N/N=C/c1ccc(N2CCOCC2)s1`, the Potency was inconclusive: 25.9 µM [activator, partial curve, poor fit]. With `Cc1noc(C)c1C(=O)Nc1c(F)cc(F)cc1Br` the Potency was inconclusive: 16.4 µM [activator, single point]. For `CSc1ccccc1NC(=O)c1cc(C(C)C)on1`, the Potency was inconclusive: 16.4 µM [activator, partial curve]. In the case of `CCn1c(=S)[nH]c2sc3c(c2c1=O)CCCCC3`, the Potency is reported as inconclusive: 29.1 µM [falling, single point]. For `Cc1nc(SCc2nc3ccccc3[nH]2)c2oc3ccccc3c2n1`, the Potency was inconclusive: 18.4 µM [falling, partial curve, poor fit]. In the case of `CC(C)c1ccc(NC(=O)CN2C(=O)CSc3ccc(S(=O)(=O)N4CCCC4)cc32)cc1`, the Potency is reported as inconclusive: 32.6 µM [falling, single point]. In the case of `COc1ccccc1OCCSc1nc2ccccc2n1CCC(=O)O`, the Potency is reported as “inactive”. With `CCOC(=O)c1ccc(NC(=O)C23CCC(C)(C(=O)O2)C3(C)C)cc1` (stereo not drawn) the Potency was inconclusive: 10.3 µM [activator, partial curve]. With `Cc1ccc(OCC(=O)NCc2ccccn2)cc1` the Potency was inconclusive: 13 µM [activator, partial curve, poor fit]. In the case of `COc1ccc(-c2csc(NC(=O)c3ccoc3C)n2)cc1`, the Potency is reported as inconclusive: 29.1 µM [falling, single point]. For `O=C(Nc1ccc(F)cc1)c1ccc(-n2ccnc2)nc1`, the Potency was inconclusive: 7.31 µM [falling, partial curve, poor fit]. For `O=C(CCCn1c(=O)c2sccc2n(Cc2ccc(Cl)cc2)c1=O)NCc1ccc2c(c1)OCO2`, the Potency was “inactive”. In the case of `Cc1ccc(Cl)c(OCC(=O)Nc2sc(C)c(C)c2C#N)c1`, the Potency is reported as inconclusive: 0.411 µM [activator, full curve]. For `Cc1ccc(Cn2c(C3CCCN3c3nc(-c4cc(Cl)c(N)c(Cl)c4)cs3)nc3cc(C(=O)NCCCO)ccc32)cc1` (stereo not drawn), the Potency was inconclusive: 20.6 µM [falling, partial curve, poor fit]. In the case of `Cc1nc(N2CCc3ccccc3C2)[nH]c(=O)c1CCC(C)C`, the Potency is reported as inconclusive: 3.66 µM [activator, partial curve, poor fit]. With `CCOC(=O)c1ccccc1NC(=O)c1cc2c(s1)-c1ccccc1SC2` the Potency was inconclusive: 1.16 µM [activator, full curve, poor fit]. In the case of `CCCOC(=O)c1sc2nc3c(cc2c1N)C(=O)CCC3`, the Potency is reported as inconclusive: 3.66 µM [activator, full curve, poor fit]. In the case of `COc1ccccc1CC(=O)NCc1csc(-c2cccs2)n1`, the Potency is reported as inconclusive: 8.2 µM [activator, partial curve, poor fit]. For `Cc1ccc(C(=O)Nc2ccccc2N2CCCCC2)cc1[N+](=O)[O-]`, the Potency was active: 11.6 µM. For `O=C(COn1nnc2ccc(Cl)cc21)Nc1ccc(F)cc1`, the Potency was inconclusive: 10.3 µM [falling, partial curve, poor fit]. For `CC(Nc1cc(=O)n(C)c(=O)[nH]1)c1ccccc1` (stereo not drawn), the Potency was inconclusive: 0.13 µM [activator, full curve, poor fit]. In the case of `Cc1cccc(N2CCN(C(=O)c3cccn3-c3nnc(N4CCCCC4)s3)CC2)c1C`, the Potency is reported as inconclusive: 2.31 µM [falling, partial curve, poor fit]. With `Cc1cccc(C)c1OCc1cc(C(=O)NCc2cn(C)nc2C)no1` the Potency was inconclusive: 20.6 µM [falling, single point]. With `COc1cccc(NC(=O)NCc2ccccc2Cl)c1` the Potency was inconclusive: 23.1 µM [activator, single point]. For `CCCNc1nc(-c2cc(-c3ccc(Cl)cc3)on2)cc(C(C)C)n1`, the Potency was inconclusive: 9.2 µM [falling, partial curve, poor fit]. For `O=C(CCn1c(=O)[nH]c2ccccc2c1=O)NCCCN1CCN(c2cccc(Cl)c2)CC1`, the Potency was “inactive”. In the case of `CCC1CCCCN1C(=O)CSc1nc2ccsc2c(=O)n1Cc1ccccc1` (stereo not drawn), the Potency is reported as inconclusive: 16.4 µM [falling, single point]. For `CCN(CC(=O)Nc1ccc(N2CCOCC2)cc1)C(=O)COc1ccccc1OC`, the Potency was inconclusive: 29.1 µM [activator, single point]. In the case of `O=S(=O)(Nc1cc2nc3ccccc3nc2n1Cc1ccccc1)c1ccc(Cl)cc1`, the Potency is reported as inconclusive: 23.1 µM [falling, partial curve]. In the case of `CC(=O)c1ccc(NC(=O)CSc2nccn2CCc2ccccc2)cc1`, the Potency is reported as inconclusive: 23.1 µM [activator, single point]. For `O=S(=O)([N-]c1nc2ccccc2nc1-n1cc[n+](Cc2ccccc2)c1)c1ccccc1`, the Potency was inconclusive: 5.8 µM [activator, partial curve]. In the case of `O=c1c2c3c(sc2ncn1-n1cccc1)CCCCC3`, the Potency is reported as inconclusive: 29.1 µM [activator, single point]. In the case of `O=C(NC1CC1)c1ccc(Cn2c(SCc3ccc(F)cc3)nc3cccnc32)cc1`, the Potency is reported as inconclusive: 4.11 µM [activator, full curve, poor fit]. With `Cc1cc(NC(=O)COC(=O)CCNS(=O)(=O)c2cccc(C(F)(F)F)c2)no1` the Potency was inconclusive: 29.1 µM [activator, single point]. For `COCCn1c(CN(C)Cc2ccccc2)nc2c1c(=O)n(C)c(=O)n2C`, the Potency was inconclusive: 13 µM [falling, single point]. In the case of `COc1ccc(-c2cc(C(F)(F)F)nc(SCCC(=O)Nc3cccc(OC)c3)n2)cc1`, the Potency is reported as inconclusive: 16.4 µM [falling, single point]. In the case of `O=C(Cc1ccc(Cl)cc1)N/N=C1\CCCc2ccccc21`, the Potency is reported as inconclusive: 16.4 µM [falling, partial curve]. With `CN1CCN(C2=C(NS(=O)(=O)c3ccccc3)C(=O)c3ccccc3C2=O)CC1` the Potency was inconclusive: 18.4 µM [falling, partial curve, poor fit]. With `CCOC(=O)c1csc(NC(=O)c2ccc(S(=O)(=O)N(C)C)cc2)n1` the Potency was inconclusive: 25.9 µM [falling, partial curve, poor fit]. In the case of `Fc1ccccc1/C=N/n1cc(-c2ccccc2)[nH]c1=S`, the Potency is reported as inconclusive: 16.4 µM [activator, partial curve]. With `CC1CN(C(=S)SCC(=O)c2ccc([N+](=O)[O-])cc2)CC(C)O1` (stereo not drawn) the Potency was inconclusive: 20.6 µM [falling, single point].
